Earlier results as cited in US20070135514A1, “Methods for the identification of agents for the treatment of seizures, neurological diseases, endocrinopathies and hormonal diseases” (priority 2002, published 2007).
At least one structure is not confirmed: it was looked up by name or label, or the drawing left a doubt.

The chains behind the UniProt entries cited, without tags or fusion partners.
UniProt Q02563, whole entry: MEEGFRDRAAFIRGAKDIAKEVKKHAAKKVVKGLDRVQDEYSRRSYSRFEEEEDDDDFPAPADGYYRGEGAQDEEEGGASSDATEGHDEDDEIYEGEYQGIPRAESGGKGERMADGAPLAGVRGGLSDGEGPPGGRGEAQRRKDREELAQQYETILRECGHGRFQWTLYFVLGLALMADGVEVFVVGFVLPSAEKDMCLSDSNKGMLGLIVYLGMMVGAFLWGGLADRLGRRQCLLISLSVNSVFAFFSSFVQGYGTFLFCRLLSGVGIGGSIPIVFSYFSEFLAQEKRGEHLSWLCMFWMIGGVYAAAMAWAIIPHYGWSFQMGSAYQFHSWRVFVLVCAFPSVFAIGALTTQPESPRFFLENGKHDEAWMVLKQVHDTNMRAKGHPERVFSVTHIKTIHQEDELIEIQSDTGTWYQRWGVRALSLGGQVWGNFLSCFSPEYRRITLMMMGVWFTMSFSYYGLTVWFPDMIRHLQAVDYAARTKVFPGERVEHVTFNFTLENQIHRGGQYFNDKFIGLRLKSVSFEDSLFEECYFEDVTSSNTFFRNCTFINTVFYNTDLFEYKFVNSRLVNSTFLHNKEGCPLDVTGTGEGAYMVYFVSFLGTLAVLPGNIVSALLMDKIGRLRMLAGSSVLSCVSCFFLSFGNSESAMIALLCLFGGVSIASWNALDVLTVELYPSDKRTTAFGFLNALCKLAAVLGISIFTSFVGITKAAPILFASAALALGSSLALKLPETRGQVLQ

Biological target: T1, levetiracetam binding site (LBS) (Rattus norvegicus, UniProt Q02563)
T1 construct: host or cells: crude rat brain membranes (Noyer et al. 1995; Gillard et al. 2003)
Details: cited from earlier work

Row | Structure (SMILES) | displacement of LEV binding
1 | CN1CCc2cc3c(cc2[C@H]1[C@@H]1OC(=O)c2c1ccc1c2OCO1)OCO3 [bicuculline] | do not displace LEV binding
2 | CCC1(c2ccccc2)C(=O)NC(=O)NC1=O [phenobarbital] | do not displace LEV binding
